Measurements reported in publication PMC8410767.
The exact form of at least one protein or probe is not confirmed. Tags and fusion partners may be left off the protein sequences shown.

Biological target: T1, RFP-flag-FUS P525L (UniProt P35637)
T1 sequence (looked up, limits assumed): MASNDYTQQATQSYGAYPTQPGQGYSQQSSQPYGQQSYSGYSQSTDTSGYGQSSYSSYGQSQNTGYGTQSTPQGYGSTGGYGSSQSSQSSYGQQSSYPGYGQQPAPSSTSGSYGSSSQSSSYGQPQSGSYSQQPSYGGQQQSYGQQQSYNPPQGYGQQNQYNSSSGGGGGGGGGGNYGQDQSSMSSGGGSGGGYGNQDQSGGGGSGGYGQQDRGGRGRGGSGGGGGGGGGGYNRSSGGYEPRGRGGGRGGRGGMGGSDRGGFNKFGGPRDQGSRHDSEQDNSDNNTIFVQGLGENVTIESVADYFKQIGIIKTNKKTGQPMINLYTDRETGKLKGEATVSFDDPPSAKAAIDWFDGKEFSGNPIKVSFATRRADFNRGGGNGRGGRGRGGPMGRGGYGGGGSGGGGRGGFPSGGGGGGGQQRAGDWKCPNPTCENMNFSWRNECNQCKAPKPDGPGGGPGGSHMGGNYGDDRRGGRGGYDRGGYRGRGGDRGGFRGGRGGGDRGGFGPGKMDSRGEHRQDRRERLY
Experiment: pull-down
Settings: 30 ng FUS with HeLa cytoplasmic extract; Biotin-16-UTP; recombinant protein; protein details: RFP-flag; label: biotin; probe letters rebuilt from the primers and the genome

Sequence	binding result
GGGGCAUUGAAUGUUCUUUCAUAGCUGUCGUUGUUGAAUAUAAUAUACAUAGAUAGCGAUGUGCAGGGAUUUUUACCCAGCCAGCUAACUUUACUACCUUCCUUGAAGGUGGAUCUUUUUAAGAUGACCAUUCGCUCAUUUGAAGAAGAAAAACAAAAAACAAAAAAAAUAAUAAAAAUAAAACAAUUUUUACAAAGUAAUGGGAUUCAAAGAAAGGAAAAAAAGAUUUUUCUUUUUUGUCAAAAUAUCGAUCCAAUCAGAUUGGUAAAAACCCCCACACAAAUUAAAGAGGAAUAAUAAAAAUUGCAAAAAUAAAAAAAAACUUUUGCAAAUUUUUUUAUUUUUCCUUCUUUCUUUUAUAUCAUGUGAACUAAAACAGUCUUCUGUUAGGGGAUGGGGGCAAGGGGGAUACCUGAUGACAUUAACAAUUUAAUAACAUUAACAUUGUUGCCAAAGAGGUGGUCUCUUUGCUGAAAAUGGGUUUCAAGAAAAAUCUAUUUUUAUAAAAUAUAAAGAAUUUUUACAAGAGAAUCUGGAUUUGAGAAAAAAAUAUUUUGACUGGCUAAUUUAGGGGAAAUUGACAACUUUGUCGCGUUCAUACUGCACUGGUAACUUUUUAGAGAUCAAGAUGUGUGUUUUAAACUGGAUUCGUAGACUGUUUUUUGAAGGAUGGGCUAUAAACAG [HuD 3'UTR F1]	binds
GGGUGGGCUAUAAACAGAUGAUCUUCAUAUCUUUUCAUAGCAUGUAAUAAUAAUUAAAAAACAAUUAUUAAUUACUAGGGGAAAGGAGUGUUCGUUCUACCCAGGGUACCACAGUUCCCCACAGUCAAAACCCAAAAGCAAGGAGAUGAGUUGAAAGACAGUUUUUCUUUAAGUCAUCAGUAUGGGAUGUCAGCAGAACAAAAAUUAAAAAGAUUAAUUUUCCUUUUGAUCUAAAACUUCCUUAGUUUGAGCAGUAGGUGCUACAAAAUUAUUUACAUAUCUUAGUAUCAUAGUUAAAUGUAAUGUGUUUAGGAGAGGAAAACAAAAGAUACAUUUGCUUUAAAUUCAUUAAGAAAUUUUCAAAUUCACUUUGUAGCCCAUGCUGAUAGAAUUGGGCUGUGUUGGUACAUUUGAAACACUGUUUAUGUUGCUUGAAACACUUAUUUAUUUAAUCGCCGAUGUGAUGAUGCCUAUGGCCGAGAUCAAAUAUAGCUAGAUUGGCUAGACUACUUAUUUGUUUACUUAAACUAUGGGAAGAAGCAUAUUAUUGUGUCAUUCUGUUGUGUGUGUAUGUGUAUAUACAAUAUAAAUAUAUAUAUAUAAAGUUAUUUUUUCUUUGGGUUAAUUUAUUAUAAGUUGUAACACUUGGCUAGUUUUGUUUGUAUAUGUCUUAAAAUGUUUUCUUAUGAUAUUUAAGUGACAGUUAAAGAGGUAUCAAGGUAACUUGUGUAGAACUAUUCUUUGAUAUAUUGUCAUGUUUGUUGUG [HuD 3'UTR F2]	binds
